Results are given in words; binding and its absence hold for the method and conditions named. In cells and extracts the contact can be indirect. Some entries that bind do so weakly or less than the wild type. Tags and fused reporters may be left off the sequences shown.

The target in assay [1] is T1, recombinant S-tagged mature Arabidopsis thaliana starch synthase 2 (wild type) (Arabidopsis thaliana) (UniProt Q9MAC8).
T1 sequence: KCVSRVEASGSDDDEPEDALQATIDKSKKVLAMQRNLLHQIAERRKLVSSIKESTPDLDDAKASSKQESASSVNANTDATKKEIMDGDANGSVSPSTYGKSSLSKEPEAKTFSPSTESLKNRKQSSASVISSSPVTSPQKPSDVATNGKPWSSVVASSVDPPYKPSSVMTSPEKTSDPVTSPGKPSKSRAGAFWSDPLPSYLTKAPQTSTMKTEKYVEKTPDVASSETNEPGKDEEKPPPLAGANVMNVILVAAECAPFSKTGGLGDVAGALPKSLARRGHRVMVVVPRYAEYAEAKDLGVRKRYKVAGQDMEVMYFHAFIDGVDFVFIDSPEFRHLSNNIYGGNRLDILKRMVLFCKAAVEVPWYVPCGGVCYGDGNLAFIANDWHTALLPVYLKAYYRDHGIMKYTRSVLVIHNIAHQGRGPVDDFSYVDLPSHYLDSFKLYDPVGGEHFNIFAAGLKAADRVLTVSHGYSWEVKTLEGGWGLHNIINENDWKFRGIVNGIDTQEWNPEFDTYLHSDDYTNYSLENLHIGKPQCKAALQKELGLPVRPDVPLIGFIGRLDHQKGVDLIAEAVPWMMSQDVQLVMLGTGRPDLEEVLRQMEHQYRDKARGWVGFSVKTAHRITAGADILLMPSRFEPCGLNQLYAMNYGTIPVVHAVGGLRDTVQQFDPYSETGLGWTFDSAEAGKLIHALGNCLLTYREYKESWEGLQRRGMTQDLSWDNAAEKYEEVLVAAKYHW
Kind of assay: pull-down; as a2 with maize amyloplast extract, untreated (neither ATP nor CIP added); only the target purified.

The target in assay [2] is T1, recombinant S-tagged mature Arabidopsis thaliana starch synthase 2 (wild type) (Arabidopsis thaliana). Nature of the assay: condition: only pre-incubated with calf intestinal phosphatase (CIP); pull-down; as a2 with maize amyloplast extract, with calf intestinal phosphatase (CIP) instead of ATP (100 U in the methods, 10 U in the legend); only the target purified.
For assay [3], the target named is T2, recombinant S-tagged mature Arabidopsis SS2 S63/65A double mutant (Arabidopsis thaliana) (UniProt Q9MAC8).
T2 sequence: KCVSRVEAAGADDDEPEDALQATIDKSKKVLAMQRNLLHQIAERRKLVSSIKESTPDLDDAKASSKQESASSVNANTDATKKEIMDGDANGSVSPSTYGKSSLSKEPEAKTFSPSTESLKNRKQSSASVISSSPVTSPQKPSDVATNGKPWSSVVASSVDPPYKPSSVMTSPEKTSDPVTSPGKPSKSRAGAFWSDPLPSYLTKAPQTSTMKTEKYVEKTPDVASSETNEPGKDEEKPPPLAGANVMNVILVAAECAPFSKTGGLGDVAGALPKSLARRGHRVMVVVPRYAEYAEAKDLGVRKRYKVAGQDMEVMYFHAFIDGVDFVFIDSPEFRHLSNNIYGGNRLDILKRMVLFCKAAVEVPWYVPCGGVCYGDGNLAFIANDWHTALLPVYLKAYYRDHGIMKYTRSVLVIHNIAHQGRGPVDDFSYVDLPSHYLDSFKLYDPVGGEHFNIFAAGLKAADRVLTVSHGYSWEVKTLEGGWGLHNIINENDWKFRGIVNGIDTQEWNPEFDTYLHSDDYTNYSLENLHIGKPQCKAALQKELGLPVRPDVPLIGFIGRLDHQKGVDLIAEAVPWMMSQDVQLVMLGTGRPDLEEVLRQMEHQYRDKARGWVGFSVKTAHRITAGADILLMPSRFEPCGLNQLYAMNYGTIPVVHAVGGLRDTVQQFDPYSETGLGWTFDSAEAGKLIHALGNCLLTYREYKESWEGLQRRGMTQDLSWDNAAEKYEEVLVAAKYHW
Kind of assay: pull-down; S-tagged SS2 immobilised on S-protein agarose beads as bait, incubated 40 min at room temperature with plastid stroma (~1 mg/ml) with 1 mM ATP, DTT, CaCl2, protease inhibitors; washed with 20 mM Tris-HCl pH 7.5, 150 mM NaCl, 0.1% Triton-X100; immunoblot with SBE antibodies; the paper calls it co-immunoprecipitation; only the target purified.

In assay [4] the target is T1, recombinant S-tagged mature Arabidopsis thaliana starch synthase 2 (wild type) (Arabidopsis thaliana). Described as above.

B1: maize starch branching enzyme IIb (enzyme, UniProt Q08047 58-799)
chain: RKAVMVPEGENDGLASRADSAQFQSDELEVPDISEETTCGAGVADAQALNRVRVVPPPSDGQKIFQIDPMLQGYKYHLEYRYSLYRRIRSDIDEHEGGLEAFSRSYEKFGFNASAEGITYREWAPGAFSAALVGDVNNWDPNADRMSKNEFGVWEIFLPNNADGTSPIPHGSRVKVRMDTPSGIKDSIPAWIKYSVQAPGEIPYDGIYYDPPEEVKYVFRHAQPKRPKSLRIYETHVGMSSPEPKINTYVNFRDEVLPRIKKLGYNAVQIMAIQEHSYYGSFGYHVTNFFAPSSRFGTPEDLKSLIDRAHELGLLVLMDVVHSHASSNTLDGLNGFDGTDTHYFHSGPRGHHWMWDSRLFNYGNWEVLRFLLSNARWWLEEYKFDGFRFDGVTSMMYTHHGLQVTFTGNFNEYFGFATDVDAVVYLMLVNDLIHGLYPEAVTIGEDVSGMPTFALPVHDGGVGFDYRMHMAVADKWIDLLKQSDETWKMGDIVHTLTNRRWLEKCVTYAESHDQALVGDKTIAFWLMDKDMYDFMALDRPSTPTIDRGIALHKMIRLITMGLGGEGYLNFMGNEFGHPEWIDFPRGPQRLPSGKFIPGNNNSYDKCRRRFDLGDADYLRYHGMQEFDQAMQHLEQKYEFMTSDHQYISRKHEEDKVIVFEKGDLVFVFNFHCNNSYFDYRIGCRKPGVYKVVLDSDAGLFGGFSRIHHAAEHFTADCSHDNRPYSFSVYTPSRTCVVYAPVE
B1: the binding result is recorded as “binds” in assay [1], “no binding” in assay [2], “binds” in assay [3] and “binds” in assay [4].

B2: Arabidopsis starch branching enzyme 2.2 (enzyme, UniProt Q9LZS3 33-805)
chain: FFFKKHPLSRKIFAGKQSAEFDSSSQAISASEKVLVPDNLDDDPRGFSQIFDLESQTMEYTEAVRTEDQTMNVVKERGVKPRIVPPPGDGKKIYEIDPMLRTYNNHLDYRYGQYKRLREEIDKYEGGLEAFSRGYEKLGFSRSDAGITYREWAPGAKAASLIGDFNNWNSNADIMTRNEFGVWEIFLPNNTDGSPAIPHGSRVKIRMDTPSGIKDSIPAWIKFSVQAPGEIPFNGIYYDPPEEEKYVFKHPQPKRPKSLRIYEAHVGMSSTEPMVNTYANFRDDVLPRIKKLGYNAVQIMAIQEHSYYASFGYHVTNFFAPSSRCGTPEELKSLIDRAHELGLVVLMDIVHSHASKNTLDGLNMFDGTDAHYFHSGPRGYHWMWDSRLFNYGSWEVLRYLLSNARWWLEEYKFDGFRFDGVTSMMYTHHGLSVGFTGNYTEYFGLETDVDAVNYLMLVNDMIHGLYPEAITVGEDVSGMPTFCIPVQDGGVGFDYRLHMAIADKWIEMLKKRDEDWQMGDIIYTLTNRRWSEKCISYAESHDQALVGDKTIAFWLMDKDMYDFMAVDRPSTPLIDRGIALHKMIRLITMGLGGEGYLNFMGNEFGHPEWIDFPRGEQRLSDGSVIPGNNFSYDKCRRRFDLGDADYLRYRGLQEFDQAMQHLEENYGFMTSEHQFISRKDEADRVIVFERGDLVFVFNFHWTSSYFDYRIGCSKPGKYKIVLDSDDPLFGGFNRLDRKAEYFTYDGLYDERPCSFMVYAPCRTAVVYALANHD
B2: the binding result in assay [4] is recorded as “binds”.

The values above are taken from paper PMC6156364, “Bioinformatic and in vitro Analyses of Arabidopsis Starch Synthase 2 Reveal Post-translational Regulatory Mechanisms” (Frontiers in Plant Science, 2018).
